{
  "source": "the supplement of paper PMC8728848",
  "test_in_all_cases": "glycan array binding signal (z-score within array); higher = stronger binding",
  "settings_in_all_cases": "glycan notation: IUPAC condensed, linker removed",
  "key": {"[1]": {"biological_target": "Gal(b1-3)[Fuc(a1-4)]GlcNAc(b1-3)Gal(b1-4)GlcNAc", "in_short": "(§1)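 Glycan array data were curated from 3228 arrays in the Consortium for Functional Glycomics database and kept only where the protein sequence was available. Glycan names were converted to IUPAC-condensed notation, and columns mapping to the same glycan were averaged. The binding signal is a within-array Z-score, averaged across arrays of the same protein sequence at different concentrations or buffers and across linkers. Negative Z-scores can be read as non-binding.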"}, "[2]": {"biological_target": "Gal(b1-3)[Fuc(a1-4)]GlcNAc(b1-3)Gal(b1-4)[Fuc(a1-3)]GlcNAc", "in_short": "as §1"}, "[3]": {"biological_target": "Gal(b1-3)[GlcNAc(b1-6)]GalNAc", "in_short": "as §1"}, "[4]": {"biological_target": "Gal(b1-3)[Neu5Ac(a2-6)]GalNAc", "in_short": "as §1"}, "[5]": {"biological_target": "Gal(b1-3)[Neu5Ac(a2-6)]GlcNAc(b1-6)Gal(b1-4)Glc", "in_short": "as §1"}, "[6]": {"biological_target": "Gal(b1-3)[Neu5Ac(b2-6)]GalNAc", "in_short": "as §1"}, "Gal(b1-4)Gal": {"biological_target": "Gal(b1-4)Gal", "in_short": "as §1"}, "[7]": {"biological_target": "Gal(b1-4)GalNAc(a1-3)[Fuc(a1-2)]Gal(b1-4)GlcNAc", "in_short": "as §1"}, "[8]": {"biological_target": "Gal(b1-4)GalNAc(b1-3)[Fuc(a1-2)]Gal(b1-4)GlcNAc", "in_short": "as §1"}, "Gal(b1-4)Glc": {"biological_target": "Gal(b1-4)Glc", "in_short": "as §1"}, "Gal(b1-4)Glc6S": {"biological_target": "Gal(b1-4)Glc6S", "in_short": "as §1"}, "Gal(b1-4)GlcNAc": {"biological_target": "Gal(b1-4)GlcNAc", "in_short": "as §1"}, "[9]": {"biological_target": "Gal(b1-4)GlcNAc(a1-6)Gal(b1-4)GlcNAc", "in_short": "as §1"}, "Gal(b1-4)GlcNAc(b1-2)Man": {"biological_target": "Gal(b1-4)GlcNAc(b1-2)Man", "in_short": "as §1"}, "[10]": {"biological_target": "Gal(b1-4)GlcNAc(b1-2)Man(a1-3)Man(b1-4)GlcNAc(b1-4)GlcNAc", "in_short": "as §1"}, "[11]": {"biological_target": "Gal(b1-4)GlcNAc(b1-2)Man(a1-3)[Gal(b1-4)GlcNAc(b1-2)Man(a1-6)]Man(b1-4)GlcNAc(b1-4)GlcNAc", "in_short": "as §1"}, "[12]": {"biological_target": "Gal(b1-4)GlcNAc(b1-2)Man(a1-3)[Gal(b1-4)GlcNAc(b1-2)Man(a1-6)]Man(b1-4)GlcNAc(b1-4)[Fuc(a1-6)]GlcNAc", "in_short": "as §1"}, "[13]": {"biological_target": "Gal(b1-4)GlcNAc(b1-2)Man(a1-3)[Gal(b1-4)GlcNAc(b1-2)][GlcNAc(b1-4)]Man(b1-4)GlcNAc(b1-4)GlcNAc", "in_short": "as §1"}, "[14]": {"biological_target": "Gal(b1-4)GlcNAc(b1-2)Man(a1-3)[GlcNAc(b1-2)Man(a1-6)]Man(b1-4)GlcNAc(b1-4)GlcNAc", "in_short": "as §1"}, "[15]": {"biological_target": "Gal(b1-4)GlcNAc(b1-2)Man(a1-3)[Man(a1-6)]Man(b1-4)GlcNAc(b1-4)GlcNAc", "in_short": "as §1"}, "[16]": {"biological_target": "Gal(b1-4)GlcNAc(b1-2)Man(a1-6)Man(b1-4)GlcNAc(b1-4)GlcNAc", "in_short": "as §1"}, "[17]": {"biological_target": "Gal(b1-4)GlcNAc(b1-2)Man(a1-6)[GlcNAc(b1-2)Man(a1-3)]Man(b1-4)GlcNAc(b1-4)GlcNAc", "in_short": "as §1"}, "[18]": {"biological_target": "Gal(b1-4)GlcNAc(b1-2)Man(a1-6)[Man(a1-3)]Man(b1-4)GlcNAc(b1-4)GlcNAc", "in_short": "as §1"}, "[19]": {"biological_target": "Gal(b1-4)GlcNAc(b1-2)[Gal(b1-4)GlcNAc(b1-4)]Man(a1-3)[Gal(b1-4)GlcNAc(b1-2)Man(a1-6)]Man(b1-4)GlcNAc(b1-4)GlcNAc", "in_short": "as §1"}, "[20]": {"biological_target": "Gal(b1-4)GlcNAc(b1-2)[Gal(b1-4)GlcNAc(b1-4)]Man(a1-3)[Gal(b1-4)GlcNAc(b1-2)[Gal(b1-4)GlcNAc(b1-6)]Man(a1-6)]Man(b1-4)GlcNAc(b1-4)GlcNAc", "in_short": "as §1"}, "[21]": {"biological_target": "Gal(b1-4)GlcNAc(b1-2)[Gal(b1-4)GlcNAc(b1-4)]Man(a1-3)[GlcNAc(b1-4)][Gal(b1-4)GlcNAc(b1-2)Man(a1-6)]Man(b1-4)GlcNAc(b1-4)GlcNAc", "in_short": "as §1"}, "[22]": {"biological_target": "Gal(b1-4)GlcNAc(b1-2)[Gal(b1-4)GlcNAc(b1-4)]Man(a1-3)[GlcNAc(b1-4)][Gal(b1-4)GlcNAc(b1-2)[Gal(b1-4)GlcNAc(b1-6)]Man(a1-6)]Man(b1-4)GlcNAc(b1-4)GlcNAc", "in_short": "as §1"}, "[23]": {"biological_target": "Gal(b1-4)GlcNAc(b1-2)[Gal(b1-4)GlcNAc(b1-6)]Man(a1-6)[Gal(b1-4)GlcNAc(b1-2)Man(a1-3)]Man(b1-4)GlcNAc(b1-4)GlcNAc", "in_short": "as §1"}, "[24]": {"biological_target": "Gal(b1-4)GlcNAc(b1-2)[Gal(b1-4)GlcNAc(b1-6)]Man(a1-6)[GlcNAc(b1-4)][Gal(b1-4)GlcNAc(b1-2)Man(a1-3)]Man(b1-4)GlcNAc(b1-4)GlcNAc", "in_short": "as §1"}, "[25]": {"biological_target": "Gal(b1-4)GlcNAc(b1-3)Gal(b1-3)GlcNAc", "in_short": "as §1"}, "[26]": {"biological_target": "Gal(b1-4)GlcNAc(b1-3)Gal(b1-4)Glc", "in_short": "as §1"}, "[27]": {"biological_target": "Gal(b1-4)GlcNAc(b1-3)Gal(b1-4)GlcNAc", "in_short": "as §1"}, "[28]": {"biological_target": "Gal(b1-4)GlcNAc(b1-3)Gal(b1-4)GlcNAc(b1-3)Gal(b1-4)GlcNAc", "in_short": "as §1"}, "[29]": {"biological_target": "Gal(b1-4)GlcNAc(b1-3)Gal(b1-4)[Fuc(a1-3)GlcNAc(b1-6)]Gal(b1-4)Glc", "in_short": "as §1"}, "[30]": {"biological_target": "Gal(b1-4)GlcNAc(b1-3)Gal(b1-4)[Fuc(a1-3)]GlcNAc(b1-3)Gal(b1-4)[Fuc(a1-3)]GlcNAc", "in_short": "as §1"}, "[31]": {"biological_target": "Gal(b1-4)GlcNAc(b1-3)GalNAc", "in_short": "as §1"}, "[32]": {"biological_target": "Gal(b1-4)GlcNAc(b1-3)[Gal(b1-4)GlcNAc(b1-6)]Gal(b1-4)GlcNAc", "in_short": "as §1"}, "[33]": {"biological_target": "Gal(b1-4)GlcNAc(b1-3)[Gal(b1-4)GlcNAc(b1-6)]GalNAc", "in_short": "as §1"}, "[34]": {"biological_target": "Gal(b1-4)GlcNAc(b1-3)[GlcNAc(b1-6)]Gal(b1-4)GlcNAc", "in_short": "as §1"}, "[35]": {"biological_target": "Gal(b1-4)GlcNAc(b1-6)Gal(b1-4)GlcNAc", "in_short": "as §1"}, "[36]": {"biological_target": "Gal(b1-4)GlcNAc(b1-6)GalNAc", "in_short": "as §1"}, "[37]": {"biological_target": "Gal(b1-4)GlcNAc(b1-6)[Gal(b1-3)]GalNAc", "in_short": "as §1"}, "Gal(b1-6)Gal": {"biological_target": "Gal(b1-6)Gal", "in_short": "as §1"}, "Gal3S(b1-3)GalNAc": {"biological_target": "Gal3S(b1-3)GalNAc", "in_short": "as §1"}, "Gal3S(b1-3)GlcNAc": {"biological_target": "Gal3S(b1-3)GlcNAc", "in_short": "as §1"}},
  "note": "This is one part of the list.",
  "data": [
    {"binder": "Protectin (Homo sapiens), P13987 (protein) MGIQGGSVLFGLLLVLAVFCHSGHSLQCYNCPNPTADCKTAVNCSSDFDACLITKAGLQVYNKCWKFEHCNFNDVTTRLRENELTYYCCKKDLCNFNEQLENGGTSLSEKTVLLLVTPFLAAAWSLHP", "values": [
      {"measurement": "glycan array binding signal (z-score)", "setting": "[1]", "value": -0.601},
      {"measurement": "glycan array binding signal (z-score)", "setting": "[2]", "value": -0.741},
      {"measurement": "glycan array binding signal (z-score)", "setting": "[3]", "value": 0.335},
      {"measurement": "glycan array binding signal (z-score)", "setting": "[4]", "value": 0.383},
      {"measurement": "glycan array binding signal (z-score)", "setting": "[5]", "value": 0.839},
      {"measurement": "glycan array binding signal (z-score)", "setting": "[6]", "value": -1.16},
      {"measurement": "glycan array binding signal (z-score)", "setting": "Gal(b1-4)Gal", "value": 0.898},
      {"measurement": "glycan array binding signal (z-score)", "setting": "[7]", "value": 1.53},
      {"measurement": "glycan array binding signal (z-score)", "setting": "[8]", "value": 0.272},
      {"measurement": "glycan array binding signal (z-score)", "setting": "Gal(b1-4)Glc", "value": -0.112},
      {"measurement": "glycan array binding signal (z-score)", "setting": "Gal(b1-4)Glc6S", "value": 0.209},
      {"measurement": "glycan array binding signal (z-score)", "setting": "Gal(b1-4)GlcNAc", "value": 0.172},
      {"measurement": "glycan array binding signal (z-score)", "setting": "[9]", "value": -1.13},
      {"measurement": "glycan array binding signal (z-score)", "setting": "Gal(b1-4)GlcNAc(b1-2)Man", "value": 0.267},
      {"measurement": "glycan array binding signal (z-score)", "setting": "[10]", "value": -0.656},
      {"measurement": "glycan array binding signal (z-score)", "setting": "[11]", "value": 0.203},
      {"measurement": "glycan array binding signal (z-score)", "setting": "[12]", "value": 0.241},
      {"measurement": "glycan array binding signal (z-score)", "setting": "[13]", "value": -0.957},
      {"measurement": "glycan array binding signal (z-score)", "setting": "[14]", "value": -1.88},
      {"measurement": "glycan array binding signal (z-score)", "setting": "[15]", "value": 0.805},
      {"measurement": "glycan array binding signal (z-score)", "setting": "[16]", "value": 0.272},
      {"measurement": "glycan array binding signal (z-score)", "setting": "[17]", "value": -0.693},
      {"measurement": "glycan array binding signal (z-score)", "setting": "[18]", "value": 1.32},
      {"measurement": "glycan array binding signal (z-score)", "setting": "[19]", "value": 2.01},
      {"measurement": "glycan array binding signal (z-score)", "setting": "[20]", "value": -0.122},
      {"measurement": "glycan array binding signal (z-score)", "setting": "[21]", "value": 0.759},
      {"measurement": "glycan array binding signal (z-score)", "setting": "[22]", "value": -0.864},
      {"measurement": "glycan array binding signal (z-score)", "setting": "[23]", "value": 1.76},
      {"measurement": "glycan array binding signal (z-score)", "setting": "[24]", "value": -0.161},
      {"measurement": "glycan array binding signal (z-score)", "setting": "[25]", "value": 0.126},
      {"measurement": "glycan array binding signal (z-score)", "setting": "[26]", "value": -0.237},
      {"measurement": "glycan array binding signal (z-score)", "setting": "[27]", "value": -1.59},
      {"measurement": "glycan array binding signal (z-score)", "setting": "[28]", "value": -1.17},
      {"measurement": "glycan array binding signal (z-score)", "setting": "[29]", "value": -0.518},
      {"measurement": "glycan array binding signal (z-score)", "setting": "[30]", "value": 1.13},
      {"measurement": "glycan array binding signal (z-score)", "setting": "[31]", "value": -0.483},
      {"measurement": "glycan array binding signal (z-score)", "setting": "[32]", "value": 1.06},
      {"measurement": "glycan array binding signal (z-score)", "setting": "[33]", "value": -1.18},
      {"measurement": "glycan array binding signal (z-score)", "setting": "[34]", "value": -1.04},
      {"measurement": "glycan array binding signal (z-score)", "setting": "[35]", "value": -0.131},
      {"measurement": "glycan array binding signal (z-score)", "setting": "[36]", "value": -0.504},
      {"measurement": "glycan array binding signal (z-score)", "setting": "[37]", "value": -0.321},
      {"measurement": "glycan array binding signal (z-score)", "setting": "Gal(b1-6)Gal", "value": -2},
      {"measurement": "glycan array binding signal (z-score)", "setting": "Gal3S(b1-3)GalNAc", "value": 0.141},
      {"measurement": "glycan array binding signal (z-score)", "setting": "Gal3S(b1-3)GlcNAc", "value": -0.589}
    ]}
  ]
}
